# Results are given in words; binding and its absence hold for the method and conditions named. In cells and extracts the contact can be indirect. Some binding calls cover weakened binding; strength is not graded here. For some assays here: Tags and fused reporters may be left off the sequences shown.
# T1: Tripartite motif-containing 26 (TRIM26), endogenous (human (endogenous in 786-O and Caki-1)) (UniProt Q12899)
# T1 sequence: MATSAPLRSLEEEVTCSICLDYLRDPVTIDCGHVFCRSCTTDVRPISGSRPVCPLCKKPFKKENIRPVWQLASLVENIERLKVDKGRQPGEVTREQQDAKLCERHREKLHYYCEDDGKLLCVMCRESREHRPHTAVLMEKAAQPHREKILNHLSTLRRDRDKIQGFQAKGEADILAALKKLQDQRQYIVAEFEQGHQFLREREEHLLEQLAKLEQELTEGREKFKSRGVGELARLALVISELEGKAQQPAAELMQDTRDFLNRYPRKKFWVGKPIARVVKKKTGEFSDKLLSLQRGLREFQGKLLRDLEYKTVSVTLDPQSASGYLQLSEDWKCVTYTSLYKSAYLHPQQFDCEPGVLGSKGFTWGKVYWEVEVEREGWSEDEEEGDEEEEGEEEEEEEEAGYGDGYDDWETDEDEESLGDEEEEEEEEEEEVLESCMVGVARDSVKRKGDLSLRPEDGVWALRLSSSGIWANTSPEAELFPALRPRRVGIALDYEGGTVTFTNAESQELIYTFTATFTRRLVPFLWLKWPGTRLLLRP
# T2: FLAG-TRIM26 (human) (UniProt Q12899)
# T2 sequence: T1 sequence
# B1: ETK, non-receptor tyrosine kinase (bone marrow tyrosine kinase, BMX), endogenous (protein, UniProt P51813 1-675)
# chain: MDTKSILEELLLKRSQQKKKMSPNNYKERLFVLTKTNLSYYEYDKMKRGSRKGSIEIKKIRCVEKVNLEEQTPVERQYPFQIVYKDGLLYVYASNEESRSQWLKALQKEIRGNPHLLVKYHSGFFVDGKFLCCQQSCKAAPGCTLWEAYANLHTAVNEEKHRVPTFPDRVLKIPRAVPVLKMDAPSSSTTLAQYDNESKKNYGSQPPSSSTSLAQYDSNSKKIYGSQPNFNMQYIPREDFPDWWQVRKLKSSSSSEDVASSNQKERNVNHTTSKISWEFPESSSSEEEENLDDYDWFAGNISRSQSEQLLRQKGKEGAFMVRNSSQVGMYTVSLFSKAVNDKKGTVKHYHVHTNAENKLYLAENYCFDSIPKLIHYHQHNSAGMITRLRHPVSTKANKVPDSVSLGNGIWELKREEITLLKELGSGQFGVVQLGKWKGQYDVAVKMIKEGSMSEDEFFQEAQTMMKLSHPKLVKFYGVCSKEYPIYIVTEYISNGCLLNYLRSHGKGLEPSQLLEMCYDVCEGMAFLESHQFIHRDLAARNCLVDRDLCVKVSDFGMTRYVLDDQYVSSVGTKFPVKWSAPEVFHYFKYSSKSDVWAFGILMWEVFSLGKQPYDLYDNSQVVLKVSQGHRLYRPHLASDTIYQIMYSCWHELPEKRPTFQQLLSSIEPLREKDKH
# B2: HA-ETK (protein, UniProt P51813 1-675)
# chain: B1 chain
# Columns and labels:
# [1] = biological target: T1, Tripartite motif-containing 26 (TRIM26), endogenous (human (endogenous in 786-O and Caki-1)); assay: co-IP; endogenous proteins in lysates of 786-O and Caki-1 cells; IP lysis buffer, specific antibodies or IgG overnight at 4 °C, protein A/G magnetic beads, western blot
# FLAG-TRIM26 (human) = biological target: T2, FLAG-TRIM26 (human); assay: co-IP; FLAG-TRIM26 and HA-ETK expressed in HEK 293T cells; immunoprecipitation with anti-FLAG or anti-HA antibodies, protein A/G magnetic beads, western blot
binder,measurement,setting,value
B1,binding,[1],binds
B2,binding,FLAG-TRIM26 (human),binds

# From publication PMC11110379
